The DeepSol protein solubility set

Test: soluble on expression in E. coli; label from the status in PepcDB or PDB records

Sequence | soluble on expression in E. coli
EVKPEINFVNVGERCNVAGSRKFLRLINEKKYDEALSIARKQVEDGALIIDVNMDDGLLDAKEEMTTFLNLVASEPEIARVPVMIDSSKWEVIEAGLKCLQGKSIVNSISLKEGEEKFLEHARTVRQYGAAVVVMAFDEKGQADTATRKIEVCERAYHLLVDKIGFNPHDIIFDPNVLAVATGIEEHNNYAVDFIEATAWIKKNLPGAHISGGVSNLSFSFRGNNYIREAMHAVFLYHAIQKGMDMGIVNPGTSVLYTDIPADVLERIEDVVLNRRSDAAERLIELADRLKEASAGNTSAGQP | soluble
GDVEKGKKIFIMKCSQCHTVEKGGKHKTGPNLHGLFGRKTGQAPGYSYTAANKNKGIIWGEDTLMEYLENPKKYIPGTKMIFVGIKKKEERADLIAYLKKATNE | soluble
MAEKQPMLSFAKVVSGQAEDASSPSQQVQHTQDSSHSSTQNENSQPEKQAHPPHNRREKENVGGRSERPREEAEAAAAAAQKEQKSETAADQFIITATPVVQKSSAPIPEKKRAVEPTPKQAAPIKEKSKSRESKKEPWKTSTAPAATAPVTETVTVAATQDWPTLAKAELNGHVSPSNSDDNNESSSNSQHKTGGKMTKNSWKKVDISVDYGSKGKGAPRGNGGEKGTRRSANDEAVRRRSGEEDSASGDEQQYWSRSKDNKSPINEMSSDRVVDSGSNGIYYQQGGTHGWKKKVNNKAGSDMPTPPNSTSPHQSESNSPEHLPKDKAPIMNGNAKNAPAANRNGNNTSTAKTGDYWHKNGGERKEDKSQPKAYYQRNDRFQARANPHAPPKLTAAQRKERGPLPRWEDIEAGDDNFDYMTLMEAQYSQYYGAPQQFEHQLDPHQASILIQQAQQHMASFAPFRPPMPMLSPHLMSPPLDRDGGVTSPVSNGEPINTAIPFAPIYNPPTAPRPVTDDTLKEYVRKQIEYYFSEENLQKDFFLRRKMGPEGYLPVALIASFPRVRSLTEDYSLILEALKDSTKVDMSPDGLQIRAPVNPTIWPLMPTVSGADSLPGPSSQAPQQFRQNGPAATAAPVESQPQASSSKPQQPEEWEEFDNEISGGGGSAQTPKRPEKSKKAFLSAIDSEEIGDDVISKLIIMTPSRRTLDRTGDFSTRSQNQGEFNEEVEIGLRRYEEELWTVPQEKDIPTSKVSTISAEQFNEMRGNEDAKKTSDEPPEIPLPSGTQPTPDSVWTKKAKERAAASVTVPKSPMQRRESEEQKMNRFYPISKPTAPLDAKSPRKKKTRHSEKPPVEMPVAWVLGREDALPAAPIGIAASSSQVPANHPSISLLQEDRFVQNVYSTWRQACLKQRKSLGYDCAEMNTLYRFWSFFLRDNFNRNMYEEFRKLALEDAEIGSRYGIEALFRFYSYGLEKKFRPEIYKNFMKDVTTDVQKGELYGLEKLFAFLQRSKIAKQLVVDDYLTKELNKYKSTDDFRNLPQSTKNQNVCLQNSQMALDCIVFLSF | not soluble
MAGAEGFQYRAVYPFRRERPEDLELLPGDLLVVSRVALQALGVADGGERCPHNVGWMPGFNERTRQRGDFPGTYVEFLGPVALARPGPRPRGPRPLPARPLDGSSESGHILPDLAEQFSPPDPAPPILVKLVEAIEQAELDSECYSKPELPATRTDWSLSDLEQWDRTALYDAVKGFLLALPAAVVTPEAAAEAYRALREVAGPVGLVLEPPTLPLHQALTLRFLLQHLGRVARRAPSPDTAVHALASAFGPLLLRIPPSGGEGDGSEPVPDFPVLLLERLVQEHVEEQDAAPPALPPKPSKAKPAPTALANGGSPPSLQDAEWYWGDISREEVNERLRDTPDGTFLVRDASSKIQGEYTLTLRKGGNNKLIKVFHRDGHYGFSEPLTFCSVVELISHYRHESLAQYNAKLDTRLLYPVSKYQQDQVVKEDSVEAVGAQLKVYHQQYQDKSREYDQLYEEYTRTSQELQMKRTAIEAFNETIKIFEEQGQTQEKCSKEYLERFRREGNEKEMQRILLNSERLKSRIAEIHESRTKLEQDLRAQASDNREIDKRMNSLKPDLMQLRKIRDQYLVWLTQKGARQRKINEWLGIKNETEDQYSLMEDEDALPHHEERTWYVGKINRTQAEEMLSGKRDGTFLIRESSQRGCYACSVVVDGDTKHCVIYRTATGFGFAEPYNLYGSLKELVLHYQHASLVQHNDALTVTLAHPVRAPGPGPPSAAR | soluble
MAHHHHHHMTSKSFLLSFLKYKHVNTYIFEKSFSKILKNTKKHIDCHLKSCFVTMNEKKEHVLEGEKNKRVVNASKDKKKEEEGEVDPRLYFENRSKFIQDQKDKGINPYPHKFERTISIPEFIEKYKDLGNGEHLEDTILNITGRIMRVSASGQKLRFFDLVGDGEKIQVLANYSFHNHEKGNFAECYDKIRRGDIVGIVGFPGKSKKGELSIFPKETILLSACLHMLPMKYGLKDTEIRYRQRYLDLLINESSRHTFVTRTKIINFLRNFLNERGFFEVETPMMNLIAGGANARPFITHHNDLDLDLYLRIATELPLKMLIVGGIDKVYEIGKVFRNEGIDNTHNPEFTSCEFYWAYADYNDLIKWSEDFFSQLVYHLFGTYKISYNKDGPENQPIEIDFTPPYPKVSIVEEIEKVTNTILEQPFDSNETIEKMINIIKEHKIELPNPPTAAKLLDQLASHFIENKYNDKPFFIVEHPQIMSPLAKYHRTKPGLTERLEMFICGKEVLNAYTELNDPFKQKECFKLQQKDREKGDTEAAQLDSAFCTSLEYGLPPTGGLGLGIDRITMFLTNKNSIKDVILFPTMRPAN | not soluble
MANLNQKKYPAKDDFPNFEGHKSLLSKYLTADMYAKLRDVATPSGYTLDRAIQNGVDNPDFHLGLLAGDEETYTVFADLFDPVIEEYHNGFKKTDNHKTDLDASKILDDVLDPAYVISSRVRTGRNIRGMALSPHVCRSERRAIEKMVSEALNSLAADLKGKYYSLMKMDEKTQQQLIDDHFLFDRPVSRHFTSGGMARDFPDGRGIWHNDKKNFLVWINEEDHTRIISMQMGGNMKEVFERFTRGLTEVEKHIKDKTGKEFMKNDHLGFVLTCPSNLGTGVRCSVHAKLPHMAKDKRFEEICTKMRLQKRGTSGEFTESVGGVYDISNLDRLGSSEVEQVNCVIKGVKVLIEMEKKLEKGESIDDLVPK | soluble
MASPRTRRVLKELRPCDDNNFCFECEANNPQWVSVSYGIWICLECSGIHRSLGVHLSFVRSVTMDKWKDIELAKMKAGGNRKFAEFLQSQPDYKEKWTIQEKYNSRAAALFRDKVACEAEGREWSQSTSPAANYVPPTLGGMSSQSKPTNKSSGNSSLGSYYGGNSSYSQSTGDGAYSTQDSNSKYQGFGNTGYVPNQSNSGDDLLAGAMSGLSMGWSMLSKGASQAAAMAKDVGIQAQQKASQLSENVSQNNSLFGGVANKASEVGTKSWDGLSSFVKSPSLNAFSGILAKTGYEDFGGGGGGMSGSSSQNEFNDWLKQSNLPRGTTEGGDHLSNEELKPTEPVETKKKKERSVKPVQSKEKVTAENVEDDDSSSTITQFESSFNKPKTTAPRLAPVAAAPPKKKEEKAKGWDDDAWDLLNQ | not soluble
MAVSTGVKVPRNFRLLEELEEGQKGVGDGTVSWGLEDDEDMTLTRWTGMIIGPPRTNYENRIYSLKVECGPKYPEAPPSVRFVTKINMNGINNSSGMVDARSIPVLAKWQNSYSIKVVLQELRRLMMSKENMKLPQPPEGQTYNN | soluble
MCMPDMSQLKELPFSTLQFYATAPYPSYLPGRQARSQVAAPGHLINTGTYSQLVEQGFRRSGLFTYRPHCDNCHACVPVRVDAARFEPNRTQRRAWRSHQALRAFVAELAWSPEHYDLYTRYQQGRHPGGGMDEDSRTQYAQFLLTTRVNTRLVKFRTPQGQLAMISIIDVLDDGLSSVYTFYDPDMAGSLGTYSILWQIEQCRTLDLPWLYLGYWIADSRKMAYKANFRPLQMHVDGAWRETPPLEHHHHHH | not soluble
MDENINFKQSELPVTCGEVKGTLYKERFKQGTSKKCIQSEDKKWFTPREFEIEGDRGASKNWKLSIRCGGYTLKVLMENKFLPEPPSTRKKVTIK | soluble
MDQDFDLDEGAGQFNLKTTLMMFTSNDSQNDDGIWSPGSPYQALEDPSFLDKHFVSDPDRYTADELYSALEKMDGKSDLIGMDDMDNDNCYSLSPPDSGSLPISPASTSPSSYHSSGGEDLMDCYPSIDILQQASEELLYSKDDDYEICSSGPLLAYTNANSVATSAVHQNQQQQQRRLNQAGFPHQNSNGLVRFKSSQPRVLNPASISLNAPSSSFNPQSTSSTPATSSSSSSSTNGGFVKSSTGERRKYPPLRLDEEEIKLCKKEGICLPDFFPLTKAEERDLKRIRRKIRNKRSAQTSRKRKQDYIEQLEDRVSESTKENQALKQQIERLSSENQSVISQLKKLQAQLGQNAKRTTQAGRCLAVFMLSACLLVSPQLSPLGNQDNQKVLECIEEACQPSATSMNSANSAQRAIAGVTAPSVVIPSGGPVMVSTNANRQMNRNAVLNHHNNSKYPASGNQNHHPIALEDLNHPPPTLQPKQSYQQQHQPSMYRRSDETIAMAMAKIGARKGSSTSSSSASSVASSTSTSSATSPIYRTSRTLGAFEDQCDASSDDSNCANMPSLVPMKMSAQPPKRKIVTMNGQPRVTYRAVPASSVNVEQAQYYKVPQQKVQYVTMDRPIKYEVLNDYIKMEEESTIRLPNSWSTAGPRLHPQVNASSRTVRPLTVATPVHYNGPSAKKIKTQMF | not soluble
MGHHHHHHSHGVKIVPQGYQWTVERFGRYTKTLQPGLSLVVPFMDRIGRKINMMEQVLDIPSQEVISKDNANVTIDAVCFIQVIDAPRAAYEVSNLELAIINLTMTNIRTVLGSMELDEMLSQRDSINSRLLRIVDEATNPWGIKVTRIEIRDVRPPAELISSMNAQMKAERTKRAYILEAEGIR | not soluble
MGKGFQNFMSKKDFHPSAFRNLKMVWEARQKKSLEDKRQEELRVAYEKEQEILNNKALLGDEKAKMGLSFMYDAPAGMTKREEPKEEPKFEWQRKYQAPREDWAKGNEEIQDQPFGIQVRNVRCCKCHKWGHINTDRECPLFGKSGNFEDEGYANNPSDLIKDLRRRRQEGKAGPSTSKSSAAAATGEDDDEDEWMDHQQLASDMREEHGIKLKSSVLAGMQTDQQLTRMKKEMTEEEMMLEFFNSMTEKEKKKLHKKLMSGADLEDVMKKKSKKEKKKEKKEKRKNKDKKKDKKKNKKSKSRETDDDSDGSDSEDDWKEKSSKRIKREVESSPEYRSKYIKQEVLSEDENSHGRKDSSRKRAHNDSESSNEVRSSERKRSRRDDSPNAKRSIGLKSPERRSSRDRKSSPKQRQDSPVRRRRSPSSIRKESQRVRKHSPEQKRNGRHDSRSVSPVRRRRSPSPDNRQLGSRKQYSPLRRRQSSPMVASPRRRRSPSPERQRKRRSPSDSPPTRRLSTSPIRRRRSPSPNKLPVRRRRHDSGSPDRDGSESPKMWRKKSHK | not soluble
MGSDKIHHHHHHMQSFDIESLIGVNKVPSLVEMVAASRASSFSPPFEQQHHDPMGVVAAAAAAAAAGRHHPYDNRDDGQMRRYRTAFSREQIGRLEREFAKENYVSRKTRGELAAELNLPEGTIKVWFQNRRMKDKRQRVGGLAWPFPPQMAAYMLNPFAYEMWMKTAAASQFGATGPGNGAYGNNGSSTSPSAAGSLPFLPPLGFPSFLSQNSTKSPSSPHSDDSSKSKNTSSDDDESKPVNFSNSPSSSSPSPYSTD | not soluble
MHHHHHHSSGRENLYFQGGPAIGIDLGTTYSCVGVWRNDTVDIVPNDQGNRTTPSYVAFTETERLIGDAAKNQVARNPENTVFDAKRLIGRKFDDQAVQSDMTHWPFKVVRGPKDKPIISVNYLGEKKEFHAEEISAMVLQKMKEISEAYLGRQIKNAVVTVPAYFNDSQRQATKDAGAIAGLNVMRIINEPTAAAIAYGLDKKGTGERNVLIFDLGGGTFDVSLLTIEDGIFEVKATAGDTHLGGEDFDNRLVEFCVQDFKRKNRGMDLTTNARALRRLRTQCERAKRTLSSSTQATIELDSLYEGIDYSVAISRARFEELCADYFRATLAPVEKVLKDAGMDKRSVHDVVLVGGSTRIPKVQALIQEFFNGKEPCKAINPDEAVAYGAAVQAAILNGE | soluble
MKLVRFLMKLSHETVNIELKNGTQVSGTIMGVDVAMNTHLRAVSMTVKNKEPVKLDTLSIRGNNIRYIILPDPLALDTLLIDDEPRKKARAARAGASRGRGRGGMRGGRGGRGRGRGGPRGGGPRR | not soluble
